The exact form of at least one protein or probe is not confirmed. For part of these data: A weaker result is weaker than the reference pair of the same experiment. For part of these data: At least one verdict was read from the data and is not stated in words by the source. Tags and fusion partners may be left off the protein sequences shown.
Tests used:
[1] = target: T1, RsmE (Pseudomonas fluorescens CHA0) (UniProt P0DPC3); assay: ITC; settings: ITC: 300 mM NaCl, 50 mM potassium phosphate pH 8.0, 298 K, recombinant protein, protein details: C-terminal His tag
T1 sequence (looked up, limits assumed): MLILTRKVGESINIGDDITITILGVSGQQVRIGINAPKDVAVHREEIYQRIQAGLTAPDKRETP

[2] = target: T1, RsmE (Pseudomonas fluorescens CHA0); assay: NMR; settings: 313 K, slow exchange, 300 uM and 2.7 mM reported for the two motifs, assignment only in figure; NMR: 30 mM NaCl, 50 mM potassium phosphate pH 7.2, 313 K; recombinant protein; protein details: C-terminal His tag
[3] = target: T1, RsmE (Pseudomonas fluorescens CHA0); assay: NMR structure; settings: slow exchange; NMR: 30 mM NaCl, 50 mM potassium phosphate pH 7.2, 313 K; recombinant protein; protein details: C-terminal His tag
[4] = one-site fit, range, exact value in figure

GGGUCAUCAGGACGAUGACCC [RsmZ SL4]
binding result [1, 4]: binds

GGGAUCGCAGGAAGCGAUCCC [RsmZ SL3]
binding result [1, 4]: binds

GAGAAAGGAACACAGAGACUAGG [23nt-GGA76-78]
binding result ([1]; no stem, value in figure): binds more weakly

GAGGGACCGGGUCGUUGCCCGGUCCC [hcnA-GGA#1]
binding result [2]: binds more weakly

GGGUGUCGACGGAUAGACACCC [RsmZ SL1]
binding result ([1]; one-site fit, range stated for SL1, SL3, SL4 and 9nt RNA, exact value in figure): binds

UCAGGACAU [9nt-GGA39-41]
binding result [3]: binds
binding result [1, 4]: binds

GAGACCGGGACGUUGCCCGGUCUC [hcnA-GGA#2]
binding result [2]: binds more weakly

GAGCAUAGACGGCGGGACGCCGGGUA [hcnA-GGA#4]
binding result ([1]; intermediate-low affinity, value in figure): binds more weakly

Source: PMC4005645, “Molecular basis for the wide range of affinity found in Csr/Rsm protein–RNA recognition”
